PubChem BioAssay AID1259254 | NCATS, 2017
Here is an unselected part of about 59,000 reagents. About 1,550 of all reagents (2.6%) count as active. 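G2 share is only a proxy for re-replication; each gene was hit by three separate siRNAs, and active genes were retested.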 Raw values are not corrected between plates. Reagents against one gene are numbered here. Reagent sequences are not shown. Not stated in the record: the amount of reagent.

Assay: 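Genome-wide screen for genes that prevent DNA re-replication in cancer cells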 (primary screen)
Cells: human HCT116 colorectal cancer cells
Reagents: single siRNA against human genes
Timing: 3 days
Read-out: 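Imaged Hoechst DNA stain sorts each cell into a cycle phase by DNA amount; per plate, G2 fraction set to 0% for non-targeting and 100% for GMNN siRNA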
Scale: G2 robust z-score and G2 cells, % of GMNN control: higher = more G2 cells, more excess DNA replication; raw share of cells in G2: higher = larger share of cells with G2 DNA content
Hit rule: 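Active siRNAs have a G2 robust z of 5 or more median absolute deviations over the median, which in these data means about 38% or higher of GMNN control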

gene | siRNA no. | G2 robust z-score | G2 cells, % of GMNN control | raw share of cells in G2 (%) | activity call
MTMR2 (myotubularin related protein 2) | 1 | -0.0685 | 2.49 | 5.6 | inactive
MTMR2 (myotubularin related protein 2) | 2 | 0.641 | 7.48 | 6.56 | inactive
MTMR2 (myotubularin related protein 2) | 3 | -0.791 | -2.6 | 2.71 | inactive
SYNPO (synaptopodin) | 1 | 1.26 | 11.8 | 9.62 | inactive
SYNPO (synaptopodin) | 2 | 1.25 | 11.7 | 8.98 | inactive
SYNPO (synaptopodin) | 3 | -0.192 | 1.62 | 3.78 | inactive
GTF2H1 (general transcription factor IIH subunit 1) | 1 | 0.475 | 6.31 | 5.99 | inactive
GTF2H1 (general transcription factor IIH subunit 1) | 2 | 0.686 | 7.79 | 8.96 | inactive
GTF2H1 (general transcription factor IIH subunit 1) | 3 | 1.83 | 15.9 | 9.9 | inactive
DPPA3 (developmental pluripotency associated 3) | 1 | 1.1 | 10.7 | 7.67 | inactive
DPPA3 (developmental pluripotency associated 3) | 2 | 0.149 | 4.01 | 5.01 | inactive
DPPA3 (developmental pluripotency associated 3) | 3 | 0.087 | 3.58 | 5.63 | inactive
OTOP3 (otopetrin 3) | 1 | 1.96 | 16.8 | 9.75 | inactive
OTOP3 (otopetrin 3) | 2 | 1.97 | 16.9 | 10.6 | inactive
OTOP3 (otopetrin 3) | 3 | -0.108 | 2.21 | 5.08 | inactive
FGF8 (fibroblast growth factor 8) | 1 | -0.824 | -2.83 | 3.97 | inactive
FGF8 (fibroblast growth factor 8) | 2 | -0.0986 | 2.27 | 4.92 | inactive
FGF8 (fibroblast growth factor 8) | 3 | 0.334 | 5.32 | 5.61 | inactive
SELE (selectin E) | 1 | 1.79 | 15.5 | 10.9 | inactive
SELE (selectin E) | 2 | 1.04 | 10.3 | 7.37 | inactive
SELE (selectin E) | 3 | -1.06 | -4.51 | 3 | inactive
VDR (vitamin D receptor) | 1 | -0.96 | -3.79 | 4.41 | inactive
VDR (vitamin D receptor) | 2 | 0.505 | 6.52 | 6.78 | inactive
VDR (vitamin D receptor) | 3 | -0.0158 | 2.86 | 4.9 | inactive
FAM107B (family with sequence similarity 107 member B) | 1 | 2.21 | 18.5 | 10.6 | inactive
FAM107B (family with sequence similarity 107 member B) | 2 | 4.93 | 37.6 | 18.5 | inactive
FAM107B (family with sequence similarity 107 member B) | 3 | -0.404 | 0.126 | 3.38 | inactive
KCMF1 (potassium channel modulatory factor 1) | 1 | 2.18 | 18.3 | 11.6 | inactive
KCMF1 (potassium channel modulatory factor 1) | 2 | 1.76 | 15.4 | 11.8 | inactive
KCMF1 (potassium channel modulatory factor 1) | 3 | 0.534 | 6.72 | 5.16 | inactive
STAM (signal transducing adaptor molecule) | 1 | -0.033 | 2.74 | 5.28 | inactive
STAM (signal transducing adaptor molecule) | 2 | 0.945 | 9.62 | 9.66 | inactive
STAM (signal transducing adaptor molecule) | 3 | -0.053 | 2.59 | 5.33 | inactive
ZDHHC22 (zDHHC palmitoyltransferase 22) | 1 | -1.46 | -7.32 | 2.1 | inactive
ZDHHC22 (zDHHC palmitoyltransferase 22) | 2 | -0.125 | 2.09 | 5.05 | inactive
ZDHHC22 (zDHHC palmitoyltransferase 22) | 3 | 2.5 | 20.5 | 14.8 | inactive
ATOSA (atos homolog A) | 1 | -0.518 | -0.679 | 4.08 | inactive
ATOSA (atos homolog A) | 2 | -0.0281 | 2.77 | 5.78 | inactive
ATOSA (atos homolog A) | 3 | -0.744 | -2.27 | 2.31 | inactive
KLRK1 (killer cell lectin like receptor K1) | 1 | -0.18 | 1.7 | 5.65 | inactive
KLRK1 (killer cell lectin like receptor K1) | 2 | -0.515 | -0.656 | 3.86 | inactive
KLRK1 (killer cell lectin like receptor K1) | 3 | -0.246 | 1.24 | 3.64 | inactive
RABEP2 (rabaptin, RAB GTPase binding effector protein 2) | 1 | 6.22 | 46.7 | 24.9 | active
RABEP2 (rabaptin, RAB GTPase binding effector protein 2) | 2 | 0.0376 | 3.23 | 5.36 | inactive
RABEP2 (rabaptin, RAB GTPase binding effector protein 2) | 3 | 0.063 | 3.41 | 6.05 | inactive
MGAT4C (MGAT4 family member C) | 1 | -0.57 | -1.04 | 5.69 | inactive
MGAT4C (MGAT4 family member C) | 2 | -0.486 | -0.451 | 4.04 | inactive
MGAT4C (MGAT4 family member C) | 3 | -1.11 | -4.86 | 2.4 | inactive
ALMS1P1 (ALMS1 pseudogene 1) | 1 | -0.0383 | 2.7 | 3.62 | inactive
ALMS1P1 (ALMS1 pseudogene 1) | 2 | -0.371 | 0.358 | 3.73 | inactive
ALMS1P1 (ALMS1 pseudogene 1) | 3 | -0.516 | -0.666 | 2.74 | inactive
H2BC17 (H2B clustered histone 17) | 1 | -0.872 | -3.17 | 3.57 | inactive
H2BC17 (H2B clustered histone 17) | 2 | -0.528 | -0.75 | 4.2 | inactive
H2BC17 (H2B clustered histone 17) | 3 | -0.521 | -0.696 | 5.02 | inactive
NRG1 (neuregulin 1) | 1 | -0.613 | -1.34 | 4.67 | inactive
NRG1 (neuregulin 1) | 2 | 0.877 | 9.14 | 7.44 | inactive
NRG1 (neuregulin 1) | 3 | -0.568 | -1.03 | 3.12 | inactive
CNBD1 (cyclic nucleotide binding domain containing 1) | 1 | -0.89 | -3.29 | 2.42 | inactive
CNBD1 (cyclic nucleotide binding domain containing 1) | 2 | -0.922 | -3.52 | 1.78 | inactive
CNBD1 (cyclic nucleotide binding domain containing 1) | 3 | -0.146 | 1.94 | 3.38 | inactive
DCXR (dicarbonyl and L-xylulose reductase) | 1 | -0.0596 | 2.55 | 7.11 | inactive
DCXR (dicarbonyl and L-xylulose reductase) | 2 | -0.726 | -2.14 | 3.45 | inactive
DCXR (dicarbonyl and L-xylulose reductase) | 3 | -1.25 | -5.8 | 1.58 | inactive
RIT1 (Ras like without CAAX 1) | 1 | -0.181 | 1.7 | 5.56 | inactive
RIT1 (Ras like without CAAX 1) | 2 | 1.27 | 11.9 | 9.21 | inactive
RIT1 (Ras like without CAAX 1) | 3 | 0.617 | 7.31 | 6.57 | inactive
CFAP410 (cilia and flagella associated protein 410) | 1 | 0.492 | 6.43 | 8.32 | inactive
CFAP410 (cilia and flagella associated protein 410) | 2 | 0.873 | 9.11 | 7.43 | inactive
CFAP410 (cilia and flagella associated protein 410) | 3 | 1.59 | 14.2 | 9.07 | inactive

7 entries already listed, arranged by “raw share of cells in G2 (%)”, ascending:
gene | siRNA no. | G2 robust z-score | G2 cells, % of GMNN control | raw share of cells in G2 (%) | activity call
FGF8 (fibroblast growth factor 8) | 1 | -0.824 | -2.83 | 3.97 | inactive
FGF8 (fibroblast growth factor 8) | 2 | -0.0986 | 2.27 | 4.92 | inactive
OTOP3 (otopetrin 3) | 3 | -0.108 | 2.21 | 5.08 | inactive
FGF8 (fibroblast growth factor 8) | 3 | 0.334 | 5.32 | 5.61 | inactive
SELE (selectin E) | 2 | 1.04 | 10.3 | 7.37 | inactive
OTOP3 (otopetrin 3) | 2 | 1.97 | 16.9 | 10.6 | inactive
SELE (selectin E) | 1 | 1.79 | 15.5 | 10.9 | inactive
